Laboratory results published in PubChem BioAssay AID1688 (National Center for Advancing Translational Sciences (NCATS), 2009).
In all, about 220,000 compounds went through this assay and about 2,400 (1.1%) were called active. This list was built around the results that the source calls inconclusive (neither active nor inactive); the mix of calls is not that of the screen. The call rests on the fitted dose curve; in most records, active means well fitted inhibition curve with a large enough effect; inconclusive means small, poorly fitted or top-dose-only effect, or effect the other way; inactive means no such curve, though single readings can be large or run the other way. A potency beside an inconclusive call is a rough fit, not a confirmed value.
On the % scale 0 is the no-effect control and ±100 the full control effect; potency means the concentration at half of the fitted maximal effect.

Assay: qHTS Multiplex Assay to Identify Dual Action Probes in a Cell Model of Huntington: Aggregate Formation (GFP); further: nearly all actives have a fitted effect of over 60% in size
Conditions: PC12 HttQ103-GFP aggregates, Acumen cytometry, 40 h; activity change, negative = inhibition: at 46.1 µM (top of the series) unless noted
Method in brief: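 Compounds (qHTS titration) were added to PC12 cells expressing an ecdysone-driven HTT exon 1 Q103–GFP fusion after induction with 100 nM tebufenozide. Aggregate formation was measured as GFP objects in cell lysates.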
In the case of `Cc1ccc(NC(=O)Nc2ccc(C(=O)N3CCOCC3)cc2)cc1`, the “activity change, negative = inhibition” value is reported as inactive: -17.3%.
With `CCN(c1ccccc1)S(=O)(=O)c1ccc(OC)c(NC(=O)CNCCc2ccccc2)c1` the Potency was inconclusive: 7.94 µM [activator, partial curve].
In the case of `CN(C)c1ccc(N=Nc2ccccc2C(=O)OCC(=O)NC2CCCC2)cc1`, the Potency is reported as active: 6.31 µM.
For `COc1ccccc1NCCC(=O)OCC(=O)NC1CCCCC1`, the Potency was inconclusive: 2.82 µM [activator, partial curve].
In the case of `COc1ccc(C(=O)N2N=C(c3ccccc3)CC2(O)C(F)(F)F)cc1` (stereo unspecified), the Potency is reported as inconclusive: 14.1 µM [inhibitor, single point].
In the case of `O=C(NCc1ccccc1)c1nc[nH]c1C(=O)NCc1ccccc1`, the activity change, negative = inhibition is reported as inactive: -2.26% [at 9.22 µM].
With `COCCn1c(=NC(=O)c2ccc(S(=O)(=O)N3CCc4ccccc4C3)cc2)sc2cc(S(N)(=O)=O)ccc21` the “activity change, negative = inhibition” value was inactive: 19.2%.
With `COc1cccc(Nc2nc(NCCO)c3ccccc3n2)c1` the Potency was active: 8.91 µM.
In the case of `N#Cc1nc(COc2ccc(-c3ccccc3)cc2)oc1NCCCN1CCOCC1`, the “activity change, negative = inhibition” value is reported as inactive: -23%.
With `CCC/C=N/NC(=O)c1ccccc1O` the activity change, negative = inhibition was inactive: -5.71% [at 9.22 µM].
In the case of `CC1=NN(C(=S)Nc2ccccc2)C(c2ccccc2)C1` (stereo unspecified), the “activity change, negative = inhibition” value is reported as inactive: 22.5%.
In the case of `CCn1cc(C(=O)O)c(=O)c2cc(F)c(N3CCN(C(=S)NC(=O)c4ccccc4F)CC3)cc21`, the Potency is reported as inconclusive: 5.62 µM [activator, single point].
In the case of `Cc1nc(N2CCN(S(=O)(=O)c3ccccc3)CC2)c2cc(-c3ccccc3)sc2n1`, the Potency is reported as inconclusive: 0.891 µM [activator, full curve].
With `COc1cccc(/C=N/NC(=O)c2ccc(=O)n(C)c2)c1O` the Potency was active: 7.94 µM.
In the case of `c1ccc(-n2nnnc2-n2cnc3ccccc32)cc1`, the “activity change, negative = inhibition” value is reported as inactive: -12.7%.
For `O=C(CSCc1nc2ccccc2[nH]1)N1CCN(c2ccc(F)cc2)CC1`, the Potency was inconclusive: 17.8 µM [inhibitor, single point].
For `O=C1/C(=C/c2cccnc2)CCC/C1=C\c1cccnc1`, the Potency was inconclusive: 25.1 µM [inhibitor, single point].
With `C=CCn1c(SCc2csc(C)n2)nc2sc3c(c2c1=O)CCC(C)C3` (stereo unspecified) the Potency was inconclusive: 35.5 µM [inhibitor, single point].
With `CCOc1ccc(Nc2ncnc3c2cnn3-c2ccccc2)cc1` the “activity change, negative = inhibition” value was inactive: -7.19%.
With `O=C(Nc1ccc2c(c1)OCCO2)c1cccc2nc3ccccc3nc12` the Potency was inconclusive: 25.1 µM [inhibitor, single point].
For `CC1=CC(C)(C)N2C(=O)C3(SCC(=O)N3c3ccc(F)cc3)c3cc(C)cc1c32` (stereo unspecified), the Potency was inconclusive: 35.5 µM [inhibitor, single point].
